The test concerns the target T1, TRIM69-Flag (human) (UniProt Q86WT6).
T1 sequence: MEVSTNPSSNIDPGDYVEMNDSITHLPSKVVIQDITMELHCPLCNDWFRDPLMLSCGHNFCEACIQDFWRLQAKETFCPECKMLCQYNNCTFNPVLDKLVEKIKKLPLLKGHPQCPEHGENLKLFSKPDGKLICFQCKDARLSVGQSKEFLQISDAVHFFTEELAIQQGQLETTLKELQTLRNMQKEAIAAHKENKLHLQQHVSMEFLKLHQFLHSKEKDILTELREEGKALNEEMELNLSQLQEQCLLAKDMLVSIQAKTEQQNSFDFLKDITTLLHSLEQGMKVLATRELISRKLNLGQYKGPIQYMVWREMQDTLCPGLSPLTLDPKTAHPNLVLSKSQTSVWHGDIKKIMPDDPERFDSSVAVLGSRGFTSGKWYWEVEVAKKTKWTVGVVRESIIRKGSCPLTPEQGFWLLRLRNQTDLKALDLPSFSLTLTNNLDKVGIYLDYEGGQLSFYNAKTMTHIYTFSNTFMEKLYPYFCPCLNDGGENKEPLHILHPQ
Put plainly: affinity purification with mass spectrometry; TRIM69-Flag transfected into 293T cells, then infected with DENV-2; MG132 (20 uM) 4 h; RIPA buffer (25 mM Tris-HCl pH 7.4, 150 mM NaCl, 1% NP-40, 1 mM EDTA, 5% glycerol); Flag Ab agarose beads overnight at 4 C; gel slices, nano-LC-MS/MS; Flag tag alone as control.

No constants are given. Whether binding was seen depends on the method and setting. In cells and extracts the contact can be indirect. A yes stands for co-enrichment or nearness to the bait. Other partners may have been found. Where a sequence is shown, tags or fusion partners need not be part of it.

Turning to “DENV NS3 from DENV-2 infected 293T cells (from UniProt P14340 1476-2093)”, the binding result is on record as “binds”.
Consider “DENV NS4B from DENV-2 infected 293T cells (from UniProt P14340 2244-2491)”, for which the binding entry was “binds”.

For the origin of these results see article PMC6126873.
